Measurements from doi:10.1101/2021.03.25.437050.
These are yes or no findings as the source states them, for the method shown. In cells and extracts the contact can be indirect. Some results given as binding are weak or reduced against the parent protein; the word gives no strength.

Target: T1, Homer1 (mouse (endogenous in cultured cortical neurons and brain tissue)), Q9Z2Y3
T1 chain: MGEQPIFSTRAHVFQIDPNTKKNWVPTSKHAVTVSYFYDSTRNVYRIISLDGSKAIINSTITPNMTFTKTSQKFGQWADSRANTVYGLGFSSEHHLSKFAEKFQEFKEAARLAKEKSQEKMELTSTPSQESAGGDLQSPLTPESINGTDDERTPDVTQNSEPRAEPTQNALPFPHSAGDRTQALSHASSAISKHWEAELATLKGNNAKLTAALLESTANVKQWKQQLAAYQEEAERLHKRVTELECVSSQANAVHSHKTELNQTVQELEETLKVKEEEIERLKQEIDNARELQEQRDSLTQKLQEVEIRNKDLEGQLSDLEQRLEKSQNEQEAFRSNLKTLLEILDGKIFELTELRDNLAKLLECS
Experiment: co-IP
Conditions: remark: other sources report otherwise

B1: Homer1, Q9Z2Y3 1-366 (protein)
chain: T1 chain
binding: binds
